These are yes or no findings as the source states them, for the method shown. Binding seen in cells or lysates may run through a third protein. Some binding calls cover weakened binding; strength is not graded here.
Biological target: thrombospondin-1 (TSP1), endogenous in human dermal fibroblasts (human (endogenous in HDF)) (UniProt P07996)
Test: proximity ligation; Duolink in situ proximity ligation in human dermal fibroblasts (HDF), antibodies to CCN2 and TSP1 (C9); fluorescent area per cell against single antibody stainings

Chains of the proteins cited; added tags and fusions are not shown. Residues count along the entry.
UniProt P07996, residues 19-1170: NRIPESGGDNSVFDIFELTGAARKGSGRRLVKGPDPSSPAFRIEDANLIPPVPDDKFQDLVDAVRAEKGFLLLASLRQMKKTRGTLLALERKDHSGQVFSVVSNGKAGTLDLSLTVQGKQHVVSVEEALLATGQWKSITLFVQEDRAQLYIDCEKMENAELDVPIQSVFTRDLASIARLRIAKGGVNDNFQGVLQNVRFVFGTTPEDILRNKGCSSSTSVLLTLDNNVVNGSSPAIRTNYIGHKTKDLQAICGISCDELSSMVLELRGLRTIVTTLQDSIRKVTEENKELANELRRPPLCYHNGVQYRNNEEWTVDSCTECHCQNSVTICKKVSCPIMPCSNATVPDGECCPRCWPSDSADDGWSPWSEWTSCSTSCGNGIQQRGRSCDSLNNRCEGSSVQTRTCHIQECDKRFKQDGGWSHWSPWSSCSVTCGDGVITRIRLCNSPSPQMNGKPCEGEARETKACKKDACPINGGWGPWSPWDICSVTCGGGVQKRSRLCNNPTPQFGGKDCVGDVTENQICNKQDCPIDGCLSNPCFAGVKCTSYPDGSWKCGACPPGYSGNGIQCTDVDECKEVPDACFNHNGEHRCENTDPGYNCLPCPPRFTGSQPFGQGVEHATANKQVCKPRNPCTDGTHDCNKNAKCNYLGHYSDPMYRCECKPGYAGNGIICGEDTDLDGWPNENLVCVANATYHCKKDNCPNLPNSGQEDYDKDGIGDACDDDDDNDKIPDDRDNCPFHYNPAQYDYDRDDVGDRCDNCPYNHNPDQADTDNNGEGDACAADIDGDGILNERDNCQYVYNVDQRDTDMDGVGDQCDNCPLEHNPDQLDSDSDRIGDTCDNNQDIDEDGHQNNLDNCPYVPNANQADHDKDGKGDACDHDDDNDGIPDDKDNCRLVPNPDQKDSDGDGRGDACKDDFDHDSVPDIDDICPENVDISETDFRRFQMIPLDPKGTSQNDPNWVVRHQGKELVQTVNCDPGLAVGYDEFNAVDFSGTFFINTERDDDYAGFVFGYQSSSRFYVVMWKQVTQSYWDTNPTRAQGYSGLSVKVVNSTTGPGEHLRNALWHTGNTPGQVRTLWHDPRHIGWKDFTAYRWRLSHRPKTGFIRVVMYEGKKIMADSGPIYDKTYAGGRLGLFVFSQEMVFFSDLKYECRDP
UniProt P29279, residues 27-349: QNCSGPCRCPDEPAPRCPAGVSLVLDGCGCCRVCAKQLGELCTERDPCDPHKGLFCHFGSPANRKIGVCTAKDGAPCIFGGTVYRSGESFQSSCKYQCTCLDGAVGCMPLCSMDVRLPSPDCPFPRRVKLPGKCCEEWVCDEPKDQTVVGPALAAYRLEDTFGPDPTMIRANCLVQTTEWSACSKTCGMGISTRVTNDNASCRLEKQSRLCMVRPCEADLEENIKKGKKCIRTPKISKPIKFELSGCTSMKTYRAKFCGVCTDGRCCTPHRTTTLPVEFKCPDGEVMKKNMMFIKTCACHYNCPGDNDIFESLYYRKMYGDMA

cell communication network 2 (CCN2), endogenous in human dermal fibroblasts (from UniProt P29279 27-349)
binding: binds

— paper PMC8977143
